Measurements reported in publication PMC10879184.

B1: EGFP-tagged Rab23 (protein, UniProt P35288 1-237)
chain: MLEEDMEVAIKMVVVGNGAVGKSSMIQRYCKGIFTKDYKKTIGVDFLERQIQVNDEDVRLMLWDTAGQEEFDAITKAYYRGAQACVLVFSTTDRESFEAISSWREKVVAEVGDIPTALVQNKIDLLDDSCIKNEEAEGLAKRLKLRFYRTSVKEDLNVSEVFKYLAEKHLQKLKQQITEDPEQTHSSSNKIGVFNASVGSHLGQNSSSLNGGDVINLRPNKQRTKRTRNPFSSCSVP

biological target: HA-Gli2(P1-6A), overexpressed in HEK293T (UniProt Q0VGT2); assay: co-IP; HEK293T cells co-transfected with HA-tagged Gli construct and EGFP-tagged partner(s) (Sec3, Sec5, Sec8 together in Fig. 2c, f; single subunits in Fig. 2d; Rab/Arf in Fig. 7a); anti-HA magnetic beads; lysis buffer 50 mM Tris pH 7.4, 1% NP-40, 150 mM NaCl, 0.25% sodium deoxycholate; overnight 4 °C; western blot

| Molecule | binding |
| --- | --- |
| EGFP-tagged Rab18 (from UniProt P35293 1-206) | binds |
| EGFP-tagged Arf4 (from UniProt P61750 1-180) | binds |
| B1 | binds |

These are yes or no findings as the source states them, for the method shown. Binding seen in cells or lysates may run through a third protein. A result given as binding can be weak or reduced; the word gives no strength. Sequences can lack the tags named with a protein.
